These results are taken from PubChem BioAssay AID2685 (National Center for Advancing Translational Sciences (NCATS), 2010).

This test can be described thus: qHTS Assay for Lipid Storage Modulators in Drosophila S3 Cells.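 On cell number change: cells counted by Cell Tracker Red CMTPX staining in the red channel.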 The note with it: BODIPY lipid droplet fluorescence, 18-24 h; for cell number change: measured here: cell count max response, cells fed with added oleic acid. An outline of the steps: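 Drosophila S3 cells loaded with oleic acid (400 uM, as added) and compounds at several concentrations; lipid droplets imaged by 488-nm laser-scanning cytometry, 500–530 nm intensity and object ratio to cell channel. Percent activity normalized to 20 uM Triacsin C.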
(In qHTS, concentration-response curves come from the screen itself.)

Where [1] appears, read: measured here: lipid fluorescence (Fed channel) AC50, cells fed with added oleic acid.
Where [2] appears, read: measured here: cell number channel AC50, cells fed with added oleic acid.

Structures are written as SMILES. The list shows a part of the results. These are further read-outs of the screen, such as a control signal, another cell line or another target. No call is given for them. The list favours compounds with an active or inconclusive main result. The note in brackets gives the kind of curve behind each potency; many fits are weak.

With `O=C(O)CCCC(=O)Nc1ccc(C(=O)N2CCCCC2)c(Cl)c1`, the cell number change amounted to 6.54%. Under setting [1], the AC50 was 1.16 µM [falling, full curve].

For the compound `CCN(CC)C(=O)C1CCN(Cc2ccc(OCc3ccccc3)cc2)CC1`, the cell number change was 22.1%. Further, under setting [1], the AC50 is 29.1 µM [rising, single point].

`CCCCC1CCC(C(=O)Nc2ccc(S(=O)(=O)Nc3nccs3)cc2)CC1` (stereo not drawn): the cell number change was -3.54%.

Turning to `O=C(c1ccccc1)c1ccc(OCCCN2CCCCC2)cc1`, under setting [1], the AC50 is 6.51 µM [falling, single point].

As for `C=CCc1cccc2cc(C(=O)O)c(=O)oc12`, the cell number change was -1.41%. Further, the AC50 under setting [1] is 0.103 µM [falling, partial curve, poor fit].

Turning to `O=C1C[C@@H](c2ccc(O[C@@H]3O[C@H](CO)[C@@H](O)[C@H](O)[C@H]3O)cc2)Oc2cc(O)ccc21`, the cell number change was found to be 6.26%. Moreover, the half-maximal activity concentration (AC50) under setting [1] is 9.2 µM [rising, partial curve, poor fit].

For the compound `CCCCOc1nc2ccccc2nc1C(C#N)C(=O)NC1CCCCC1` (stereo not drawn), the cell number change was -16.5%. Further, the AC50 under setting [2] was 0.116 µM [falling, full curve, poor fit].

Take `Cc1cccc(Nc2nc(N3CCCCC3)nc(N3CCCCC3)n2)c1`: the cell number change was 16.9%. The AC50 under setting [1] was 2.91 µM [rising, partial curve, poor fit].

For the compound `Cc1cccnc1NC(=O)CNC(=O)c1ccccc1`, the cell number change stood at 9.92%. The AC50 under setting [1] is 0.0651 µM [rising, full curve, poor fit].

Consider `C=CCc1cc(/C=N/NC(=O)CSc2nnc(CCCc3ccc(OC)cc3)o2)cc(OC)c1O`, for which the cell number change is -53.2%. Under setting [2], the AC50 was 23.1 µM [falling, partial curve, poor fit].

As for `N#CC1=C(SCC(=O)c2ccc(Br)cc2)NC2=C(C(=O)CCC2)C1c1ccco1` (stereo not drawn), the cell number change is -20%. Also, the AC50 under setting [1] was 0.517 µM [rising, full curve].

As for `COc1ccc(N2CCN(C(=S)NCc3ccccc3)CC2)cc1`, the cell number change came to 40.2%. Moreover, the half-maximal activity concentration (AC50) under setting [2] was 25.9 µM [rising, single point]. For the same compound, the AC50 under setting [1] is 6.51 µM [falling, single point].

Turning to `O=C(NCCN1CCOCC1)c1csc2c1CCCCC2`, the cell number change came to 2.61%. Besides, the AC50 under setting [1] was 16.4 µM [rising, partial curve, poor fit].

In the case of `CC1CCN(S(=O)(=O)c2cn(CC(=O)Nc3ccc(C#N)cc3)cn2)CC1`, the cell number change was -7.67%.

On to `O=C(Nn1c(-c2ccncc2)nc2ccccc2c1=O)c1ccccc1Br`, for which the cell number change amounted to 24.3%.

In the case of `COc1cc2cc(CN(Cc3cccs3)C(=S)Nc3ccccc3)c(=O)[nH]c2cc1OC`, the cell number change is 16.9%. For the same compound, the AC50 under setting [2] is 6.51 µM [rising, partial curve, poor fit]. Besides, the AC50 under setting [1] was 5.17 µM [rising, single point].

As for `COc1ccc(C2CC(c3cccs3)=NN2S(C)(=O)=O)cc1` (stereo not drawn), the cell number change was -1.15%. The AC50 under setting [1] was 0.13 µM [falling, full curve, poor fit].

Turning to `Oc1ccc2ccccc2c1/C=N/Nc1ccccc1`, the cell number change is -6.98%. Further, under setting [1], the AC50 is 29.1 µM [rising, single point].

In the case of `N#CCSc1ccc2nc(-c3ccccc3)cn2n1`, the cell number change came to 16.2%.

Regarding `Cc1cc(C)cc(NC(=O)NCc2c(-c3ccccc3)noc2C)c1`, the cell number change was -34.5%. Under setting [2], the AC50 was 6.51 µM [falling, partial curve, poor fit]. The AC50 under setting [1] was 7.31 µM [falling, partial curve].

Regarding `O=C(N1CCOCC1)C(F)(F)C(=O)N1CCOCC1`, the cell number change was -13.8%. In addition, the AC50 under setting [1] is 23.1 µM [falling, single point].

Take `COc1cccc(CNC(=O)N2CCN(c3ccccc3C)CC2)c1`: the cell number change was 22.6%. For the same compound, the AC50 under setting [2] is 0.013 µM [rising, full curve, poor fit]. The AC50 under setting [1] was 29.1 µM [rising, partial curve].

As to `O=C(Nc1ccc(Cl)cc1)OCCn1nnnc1C(c1ccccc1Cl)N1CCOCC1` (stereo not drawn), the cell number change is -19.7%.

On to `COc1ccc(Oc2cnc3ccccc3n2)cc1`, for which the cell number change worked out at 15.9%.

On to `O=C(CN1C(=O)NC2(CCOc3ccccc32)C1=O)c1ccc(F)cc1` (stereo not drawn), for which the cell number change was 3.52%. Under setting [1], the AC50 is 0.82 µM [rising, partial curve, poor fit].

For the compound `Cc1cccc(N2CCN(C(=O)CCCSc3nc4ccccc4[nH]3)CC2)c1C`, the cell number change was -4.46%. In addition, under setting [1], the AC50 was 32.6 µM [rising, partial curve, poor fit].

Turning to `COc1ccc([C@H]2CC(=O)C=C(c3ccc(CO)cc3)C2)cc1`, the cell number change is 17.9%.

Consider `COc1ccccc1CNC(=O)COc1ccccc1C`, for which the cell number change was 4.56%.

Consider `COc1ccc(C(=O)COC(=O)c2sc(C)nc2C)cc1Cl`, for which the cell number change was -11%.

In the case of `OCC1(Cc2ccc(F)cc2)CCCN(CCCC(F)(F)F)C1` (stereo not drawn), the cell number change amounted to 2.33%. Moreover, the AC50 under setting [1] was 0.146 µM [rising, full curve, poor fit].

On to `Cn1c(=O)c2c(SCC(=O)N3CCCCC3)nc(-c3ccccc3F)nc2n(C)c1=O`, for which the cell number change was -36.8%. Also, the AC50 under setting [2] is 4.61 µM [falling, full curve, poor fit]. In addition, the AC50 under setting [1] was 6.51 µM [falling, single point].

With `CN(C)NC(=S)NC1CC2CCC1C2` (stereo not drawn), the cell number change was 6.25%. For the same compound, the AC50 under setting [1] is 4.61 µM [rising, single point].

Turning to `Cc1cccc(NC(=O)[C@H](Cc2ccccc2)NC(=O)OCc2ccccc2)c1`, the cell number change was determined as 33.3%.

For `CC(C)CNC(=S)N1CCN(Cc2ccc3c(c2)OCO3)CC1`, the cell number change worked out at 9.6%.

For the compound `CCCOc1c(Cl)cc(C(=O)Nc2ccc3c(c2)OCO3)cc1OCC`, the AC50 runs as follows: under setting [2], 0.082 µM [rising, full curve, poor fit]; under setting [1], 0.082 µM [rising, full curve, poor fit].

For the compound `COC(=O)c1c(C)[nH]c(C(=O)COC(=O)c2c(C)noc2C)c1C`, the cell number change was -5.84%.

Regarding `COc1ccc(OC)c(C(=O)NC(CC(N)=O)c2ccc(N3CCC(Cc4ccccc4)CC3)c([N+](=O)[O-])c2)c1` (stereo not drawn), the cell number change came to 4.79%. Moreover, the AC50 under setting [1] was 29.1 µM [rising, partial curve, poor fit].

As to `CCOCCCNC(=S)N1CCN(c2nc(-c3ccc(F)cc3)cs2)CC1`, the cell number change is -21.1%. For the same compound, the AC50 under setting [1] is 29.1 µM [falling, single point].

Regarding `C=CCn1c(Cc2ccc(OC(C)C)c(Cl)c2)nnc1SCC(N)=O`, the cell number change came to 4.21%. For the same compound, under setting [2], the half-maximal activity concentration (AC50) is 0.13 µM [falling, full curve, poor fit].

Take `COC(=O)c1ccccc1NC(=O)CCC(=O)N1CCSc2ccccc21`: the cell number change came out at 6.63%. Besides, under setting [1], the AC50 was 3.66 µM [rising, single point].

As for `COC(=O)/C(=C/c1cccc([N+](=O)[O-])c1)NC(=O)c1ccc(OC)cc1`, the cell number change is -0.244%. Under setting [1], the AC50 was 13 µM [falling, single point].

For the compound `CCCc1cc(-n2ccnc2)n2c(nc3ccccc32)c1C#N`, the AC50 under setting [2] was 0.326 µM [rising, full curve] and the AC50 under setting [1] is 0.411 µM [rising, full curve].

Take `CC1CCN(C(=O)CSC2=NS(=O)(=O)c3cc(F)ccc3N2)CC1`: the cell number change was 25%.

Turning to `Cc1ccnc(NS(=O)(=O)c2ccc(NC(=O)c3cc(=O)c4ccccc4o3)cc2)n1`, the cell number change was -19.2%.

For `COc1ccnc(Nc2ccc(C)c(C)c2)c1C#N`, the cell number change stood at 6.31%. The AC50 under setting [1] is 29.1 µM [falling, partial curve].

With `Cc1nc(-c2ccc(F)cc2)c(CC(=O)Nc2cccc(S(=O)(=O)N3CCOCC3)c2)s1`, the cell number change turned out to be 30.8%. Further, the AC50 under setting [2] is 20.6 µM [rising, single point].

For the compound `CC(=O)Nc1cccc(C(=O)N/N=C/c2ccccc2F)c1`, the cell number change stood at 20.4%. Besides, under setting [1], the AC50 is 6.51 µM [rising, full curve, poor fit].

Turning to `COc1ccc(CN2CCCCCC2)cc1`, under setting [1], the AC50 is 18.4 µM [falling, partial curve].

`CC(C)COc1ccc(C(=O)NNC(=O)c2ccc(=O)[nH]c2)cc1`: the cell number change was -25.6%. Besides, the AC50 under setting [1] is 16.4 µM [falling, single point].

On to `CN1CCN(C(=S)c2ccc(Cl)cc2)CC1`, for which the cell number change was -4.9%.

Take `CCOC(=O)/C(C(N)=NC)=C(\O)c1ccccc1`: the cell number change was determined as 0.879%. Also, under setting [1], the AC50 is 3.66 µM [rising, full curve, poor fit].

On to `CCNC(=S)NNC(=O)c1c(Cl)c(C)nn1C`, for which the cell number change is -39.8%. Further, the AC50 under setting [2] is 1.64 µM [falling, partial curve]. Also, the AC50 under setting [1] is 0.58 µM [rising, single point].

Turning to `CN(c1ccccc1)S(=O)(=O)c1cccc(NC(=O)Cc2ccc(Cl)cc2)c1`, the cell number change is 2.89%.

Consider `O=C(NC(=S)NCc1nc2ccccc2[nH]1)c1ccc(F)cc1`, for which the cell number change stood at 28.8%. For the same compound, under setting [2], the half-maximal activity concentration (AC50) is 0.291 µM [rising, full curve, poor fit]. For the same compound, the AC50 under setting [1] was 0.103 µM [rising, full curve].

On to `O=C(Nc1ccc(C(=O)OC2CCCCC2)cc1)c1ccncc1`, for which the cell number change is -22%. Under setting [1], the AC50 is 16.4 µM [rising, single point].

Regarding `Cc1ccc2cc(C)c(SCC(=O)Nc3cc(C)on3)nc2c1`, the cell number change came to 73.1%. Also, the half-maximal activity concentration (AC50) under setting [2] was 18.4 µM [rising, single point]. In addition, the concentration at half-maximal activity (AC50) under setting [1] is 29.1 µM [falling, single point].

For the compound `CNC(=S)c1cc(C(C)(C)C)c(O)c(C(C)(C)C)c1`, the cell number change was -27.5%. The AC50 under setting [1] was 8.2 µM [falling, partial curve, poor fit].

For the compound `CCc1nnc(NC(=O)CSc2nc3ccccc3s2)s1`, the cell number change was 100%.

As to `Fc1cccc(Cl)c1CSc1nnc(COc2cccc3cccnc23)o1`, the cell number change worked out at 145%. Further, the AC50 under setting [1] was 6.51 µM [rising, single point].

Regarding `CCCCOc1c(Br)cc(/C=N/O)cc1OCC`, the cell number change is -59.6%. Also, the AC50 under setting [2] is 8.2 µM [falling, partial curve]. Moreover, the AC50 under setting [1] was 11.6 µM [falling, partial curve].

For the compound `COCCNC(=S)N/N=C(\C)c1cccc([N+](=O)[O-])c1`, the cell number change was determined as 15.7%. The AC50 under setting [1] was 14.6 µM [rising, partial curve].

For the compound `CCN1CCN(S(=O)(=O)c2cc3c(cc2Cl)NC(=O)CO3)CC1`, the cell number change is 10.7%. In addition, the AC50 under setting [1] is 2.31 µM [falling, full curve].

Turning to `Brc1c(CSc2nc3ccccc3o2)nc2ncccn12`, the cell number change was -5.4%. Besides, the AC50 under setting [1] was 6.51 µM [rising, partial curve].

`Cn1cc(-c2nc3ccccc3[nH]2)c2ccccc21`: the cell number change is -15.7%. The AC50 under setting [1] was 10.3 µM [falling, single point].

A word on the AC50: it is the concentration giving half of the maximal activity seen. A lower AC50 goes with greater potency.
